This is an account of results in publication doi:10.1101/583542 (bioRxiv, 2019).

Protein sequences, listed by entry. Tags and fused reporters are not part of them. Lines headed by an entry give the natural chain unless they say otherwise; changes in a name come on top.
UniProt O82811: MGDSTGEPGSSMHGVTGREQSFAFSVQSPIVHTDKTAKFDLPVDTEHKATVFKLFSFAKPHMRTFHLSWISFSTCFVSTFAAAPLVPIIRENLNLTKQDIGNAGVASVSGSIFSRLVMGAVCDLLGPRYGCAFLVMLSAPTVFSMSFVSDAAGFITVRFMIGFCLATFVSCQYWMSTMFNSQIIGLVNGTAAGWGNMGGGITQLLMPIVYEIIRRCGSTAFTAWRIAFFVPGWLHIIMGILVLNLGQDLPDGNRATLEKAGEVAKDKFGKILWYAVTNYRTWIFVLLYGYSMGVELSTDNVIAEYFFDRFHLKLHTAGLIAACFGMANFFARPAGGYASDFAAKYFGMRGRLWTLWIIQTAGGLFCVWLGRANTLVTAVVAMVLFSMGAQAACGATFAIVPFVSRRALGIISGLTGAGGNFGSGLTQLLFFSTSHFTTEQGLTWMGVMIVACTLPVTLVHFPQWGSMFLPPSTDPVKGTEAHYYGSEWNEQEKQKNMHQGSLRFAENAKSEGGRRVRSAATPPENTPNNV

The target in test [1] is NRT2.1 ΔC494-530 (truncated NRT2.1 without epitope 20) (Arabidopsis thaliana) (UniProt O82811). Kind of test: native gel or EMSA. For orientation: A gel shift assay detects complexes by their altered migration in electrophoresis.
The target of test [2] is NRT2.1 ΔC514-530 (truncated NRT2.1 with epitope 20) (Arabidopsis thaliana) (UniProt O82811). Briefly: native gel or EMSA.

No constants are given. Whether binding was seen depends on the method and setting. A result given as binding can be weak or reduced; the word gives no strength.

B1: NAR2.1 (Arabidopsis thaliana roots) (protein, UniProt Q9FGS5 23-210)
chain: AEKVRLFKELDKGALDVTTKPSREGPGVVLDAGKDTLNITWTLSSIGSKREAEFKIIKVKLCYAPPSQVDRPWRKTHDELFKDKTCPHKIIAKPYDKTLQSTTWTLERDIPTGTYFVRAYAVDAIGHEVAYGQSTDDAKKTNLFSVQAISGRHASLDIASICFSVFSVVALVVFFVNEKRKAKIEQSK
B1: the binding entry in test [1] and in test [2] was “binds” each time.
